The record followed here is US7910556B2 (Kowa Company, Ltd., priority 2004, dated 2011).

A short description of this series: general procedure: solution-phase peptide synthesis; N,N'-dicyclohexylcarbodiimide / 1-hydroxybenzotriazole hydrate. Particulars: coupling step.

As to “2-furoyl-β-cyclohexyl-L-alanyl-glycyl-glycyl-β-cyclohexyl-L-alanyine 2-(1-piperidinyl)ethyl amide”, the step yield is reported as 75%.
